From patent US20120253017A1
These are yes or no findings as the source states them, for the method shown. Some entries that bind do so weakly or less than the wild type. Blank lines part the entries; values can stand above or below the binder they belong to.

Amino acid sequences for entries named in this document (tags omitted). Residues count along the entry.
UniProt P10721, residues 26-524: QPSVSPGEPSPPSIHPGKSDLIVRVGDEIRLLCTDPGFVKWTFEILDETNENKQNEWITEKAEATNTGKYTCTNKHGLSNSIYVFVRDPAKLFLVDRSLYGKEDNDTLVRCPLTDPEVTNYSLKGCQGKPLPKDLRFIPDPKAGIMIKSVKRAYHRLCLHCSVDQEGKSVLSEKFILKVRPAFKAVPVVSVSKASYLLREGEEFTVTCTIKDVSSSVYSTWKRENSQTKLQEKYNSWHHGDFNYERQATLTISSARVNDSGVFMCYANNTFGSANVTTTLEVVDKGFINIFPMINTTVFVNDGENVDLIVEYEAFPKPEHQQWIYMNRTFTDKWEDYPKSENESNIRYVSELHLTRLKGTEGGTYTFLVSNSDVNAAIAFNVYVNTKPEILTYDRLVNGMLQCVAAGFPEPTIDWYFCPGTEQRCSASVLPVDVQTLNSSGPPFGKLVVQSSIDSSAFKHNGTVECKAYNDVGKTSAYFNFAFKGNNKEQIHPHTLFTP
UniProt P05532, residues 25-979: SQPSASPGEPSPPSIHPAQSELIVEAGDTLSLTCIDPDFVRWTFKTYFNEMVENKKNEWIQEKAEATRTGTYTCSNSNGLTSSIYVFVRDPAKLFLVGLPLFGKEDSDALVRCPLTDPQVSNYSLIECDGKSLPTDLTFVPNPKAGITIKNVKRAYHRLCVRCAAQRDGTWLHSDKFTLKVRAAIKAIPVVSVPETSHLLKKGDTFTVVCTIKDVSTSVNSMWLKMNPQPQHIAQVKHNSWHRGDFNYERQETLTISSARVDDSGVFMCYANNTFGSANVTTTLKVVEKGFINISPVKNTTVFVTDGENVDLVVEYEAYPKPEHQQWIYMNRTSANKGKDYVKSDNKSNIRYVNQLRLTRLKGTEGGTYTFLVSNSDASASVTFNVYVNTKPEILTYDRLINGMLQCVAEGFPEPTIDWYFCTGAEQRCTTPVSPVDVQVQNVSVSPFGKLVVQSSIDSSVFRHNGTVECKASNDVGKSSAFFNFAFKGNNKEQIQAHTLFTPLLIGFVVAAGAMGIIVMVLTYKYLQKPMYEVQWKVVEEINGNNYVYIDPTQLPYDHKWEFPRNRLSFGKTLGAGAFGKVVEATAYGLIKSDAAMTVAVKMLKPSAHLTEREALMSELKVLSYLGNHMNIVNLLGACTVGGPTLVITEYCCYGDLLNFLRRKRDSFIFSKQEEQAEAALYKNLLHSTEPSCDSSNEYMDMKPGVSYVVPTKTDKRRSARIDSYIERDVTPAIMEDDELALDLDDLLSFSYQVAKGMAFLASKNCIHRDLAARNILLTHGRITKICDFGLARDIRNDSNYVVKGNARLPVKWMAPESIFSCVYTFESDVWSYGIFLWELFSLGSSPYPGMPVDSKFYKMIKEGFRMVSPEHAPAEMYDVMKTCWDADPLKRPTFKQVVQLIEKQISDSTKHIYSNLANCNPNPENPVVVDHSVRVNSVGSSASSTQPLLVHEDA

How the values were obtained:
[1] = biological target: human c-kit (recombinant, on BIAcore chip or beads) (human) (UniProt P10721); experiment: BIAcore 2000, 1 uM dAb
[2] = biological target: mouse c-kit on EML cells (mouse) (UniProt P05532); experiment: flow cytometry, EML cells; inconclusive, binds on 2 of 4 occasions
[3] = biological target: mouse c-kit on EML cells (mouse) (UniProt P05532); experiment: flow cytometry, EML cells
[4] = biological target: mouse c-kit on EML cells (mouse) (UniProt P05532); experiment: flow cytometry, EML cells; inconclusive, binds on 2 of 3 occasions

B1: DOM28m-7 (protein)
VH: EVQLLESGGGLVQPGGSLRLSCAASGFTFSNYAMGWVRQAPGKGLEWVSSISSSGFATYYADSVKGRFTISRDNSKNTLYLQMNSLRAEDTAVYYCAKSESRTFKAFDYWGQGTLVTVSS
binding [1]: binds
binding [2]: binds

B4: DOM28m-23 (protein)
VH: EVRLLESGGGLVQPGGSLRLSCAASGFTFRDYVMVWVRQAPGKGLEWVSAIAPTGGYTYYADSVKGRFTISRDNSKNTLYLQMNSLRAEDTAVYYCAKSLRTWLSEDLPFDYWGQGTLVTVSS
binding [4]: binds

Now from value to binder:

binding [3]: binds
B2: DOM28m-53 (protein)
VH: EVQLLESGGGLVQPGGSLRLSCAASGFTFSDYMMMWVRQAPGKGLEWVSTIDHAGAVTYYADSVKGRFTISRDNSKNTLYLQMNSLRAEDTAVYYCAKNQPVWQANQSRRFDYWGQGTLVTVSS

binding [3]: binds
B3: DOM28m-52 (protein)
chain: EVQLLESGGGLVQPGGSLRLSCAASGFTFSSYNMSWVRQAPGKGLEWVSWISSSGLMTYYADSVKGRFTISRDNSKNTLYLQMNSLRAEDTAVYYCAKTSLGSHPSRRPFDYWGQGTLVTVSS
